# Laboratory results: the supplement of paper PMC8728848
# This is one part of the list.
# Legend:
# Assay in all cases: glycan array binding signal (z-score within array); higher = stronger binding
# Details in all cases: glycan notation: IUPAC condensed, linker removed
# Gal(b1-4)Glc6S = biological target: Gal(b1-4)Glc6S
# Procedure, shortened: (§1)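 Glycan array binding is given as a within-array Z-score, which can be read as non-binding when negative. The arrays, 3228 of them, came from the Consortium for Functional Glycomics database and were retained only where the protein sequence was available. Z-scores were averaged across arrays of the same protein sequence at different concentrations or buffers and across linkers.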
# Gal(b1-4)GlcNAc = biological target: Gal(b1-4)GlcNAc
# Procedure, shortened: as §1
# [1] = biological target: Gal(b1-4)GlcNAc(a1-6)Gal(b1-4)GlcNAc
# Procedure, shortened: as §1
# Gal(b1-4)GlcNAc(b1-2)Man = biological target: Gal(b1-4)GlcNAc(b1-2)Man
# Procedure, shortened: as §1
# [2] = biological target: Gal(b1-4)GlcNAc(b1-2)Man(a1-3)Man(b1-4)GlcNAc(b1-4)GlcNAc
# Procedure, shortened: as §1
# [3] = biological target: Gal(b1-4)GlcNAc(b1-2)Man(a1-3)[Gal(b1-4)GlcNAc(b1-2)Man(a1-6)]Man(b1-4)GlcNAc(b1-4)GlcNAc
# Procedure, shortened: as §1
# [4] = biological target: Gal(b1-4)GlcNAc(b1-2)Man(a1-3)[Gal(b1-4)GlcNAc(b1-2)Man(a1-6)]Man(b1-4)GlcNAc(b1-4)[Fuc(a1-6)]GlcNAc
# Procedure, shortened: as §1
# [5] = biological target: Gal(b1-4)GlcNAc(b1-2)Man(a1-3)[Gal(b1-4)GlcNAc(b1-2)Man(a1-6)][Gal(b1-4)GlcNAc(b1-4)]Man(b1-4)GlcNAc(b1-4)[Fuc(a1-6)]GlcNAc
# Procedure, shortened: as §1
# [6] = biological target: Gal(b1-4)GlcNAc(b1-2)Man(a1-3)[Gal(b1-4)GlcNAc(b1-2)Man(a1-6)][GlcNAc(b1-4)]Man(b1-4)GlcNAc(b1-4)[Fuc(a1-6)]GlcNAc
# Procedure, shortened: as §1
# [7] = biological target: Gal(b1-4)GlcNAc(b1-2)Man(a1-3)[GlcNAc(b1-2)Man(a1-6)]Man(b1-4)GlcNAc(b1-4)GlcNAc
# Procedure, shortened: as §1
# [8] = biological target: Gal(b1-4)GlcNAc(b1-2)Man(a1-3)[GlcNAc(b1-4)][Gal(b1-4)GlcNAc(b1-2)Man(a1-6)]Man(b1-4)GlcNAc(b1-4)GlcNAc
# Procedure, shortened: as §1
# [9] = biological target: Gal(b1-4)GlcNAc(b1-2)Man(a1-3)[Man(a1-6)]Man(b1-4)GlcNAc(b1-4)GlcNAc
# Procedure, shortened: as §1
# [10] = biological target: Gal(b1-4)GlcNAc(b1-2)Man(a1-6)Man(b1-4)GlcNAc(b1-4)GlcNAc
# Procedure, shortened: as §1
# [11] = biological target: Gal(b1-4)GlcNAc(b1-2)Man(a1-6)[GlcNAc(b1-2)Man(a1-3)]Man(b1-4)GlcNAc(b1-4)GlcNAc
# Procedure, shortened: as §1
# [12] = biological target: Gal(b1-4)GlcNAc(b1-2)Man(a1-6)[Man(a1-3)]Man(b1-4)GlcNAc(b1-4)GlcNAc
# Procedure, shortened: as §1
# [13] = biological target: Gal(b1-4)GlcNAc(b1-2)[Gal(b1-4)GlcNAc(b1-4)]Man(a1-3)[Gal(b1-4)GlcNAc(b1-2)Man(a1-6)]Man(b1-4)GlcNAc(b1-4)GlcNAc
# Procedure, shortened: as §1
# [14] = biological target: Gal(b1-4)GlcNAc(b1-2)[Gal(b1-4)GlcNAc(b1-4)]Man(a1-3)[Gal(b1-4)GlcNAc(b1-2)[Gal(b1-4)GlcNAc(b1-6)]Man(a1-6)]Man(b1-4)GlcNAc(b1-4)GlcNAc
# Procedure, shortened: as §1
# [15] = biological target: Gal(b1-4)GlcNAc(b1-2)[Gal(b1-4)GlcNAc(b1-4)]Man(a1-3)[GlcNAc(b1-4)][Gal(b1-4)GlcNAc(b1-2)Man(a1-6)]Man(b1-4)GlcNAc(b1-4)GlcNAc
# Procedure, shortened: as §1
# [16] = biological target: Gal(b1-4)GlcNAc(b1-2)[Gal(b1-4)GlcNAc(b1-4)]Man(a1-3)[GlcNAc(b1-4)][Gal(b1-4)GlcNAc(b1-2)[Gal(b1-4)GlcNAc(b1-6)]Man(a1-6)]Man(b1-4)GlcNAc(b1-4)GlcNAc
# Procedure, shortened: as §1
# [17] = biological target: Gal(b1-4)GlcNAc(b1-2)[Gal(b1-4)GlcNAc(b1-6)]Man(a1-6)[Gal(b1-4)GlcNAc(b1-2)Man(a1-3)]Man(b1-4)GlcNAc(b1-4)GlcNAc
# Procedure, shortened: as §1
# [18] = biological target: Gal(b1-4)GlcNAc(b1-2)[Gal(b1-4)GlcNAc(b1-6)]Man(a1-6)[Gal(b1-4)GlcNAc(b1-2)Man(a1-3)]Man(b1-4)GlcNAc(b1-4)[Fuc(a1-6)]GlcNAc
# Procedure, shortened: as §1
# [19] = biological target: Gal(b1-4)GlcNAc(b1-2)[Gal(b1-4)GlcNAc(b1-6)]Man(a1-6)[GlcNAc(b1-4)][Gal(b1-4)GlcNAc(b1-2)Man(a1-3)]Man(b1-4)GlcNAc(b1-4)GlcNAc
# Procedure, shortened: as §1
# [20] = biological target: Gal(b1-4)GlcNAc(b1-2)[Gal(b1-4)GlcNAc(b1-6)]Man(a1-6)[GlcNAc(b1-4)][Gal(b1-4)GlcNAc(b1-2)[Gal(b1-4)GlcNAc(b1-4)]Man(a1-3)]Man(b1-4)GlcNAc(b1-4)[Fuc(a1-6)]GlcNAc
# Procedure, shortened: as §1
# [21] = biological target: Gal(b1-4)GlcNAc(b1-3)Gal(b1-3)GalNAc
# Procedure, shortened: as §1
# [22] = biological target: Gal(b1-4)GlcNAc(b1-3)Gal(b1-3)GlcNAc
# Procedure, shortened: as §1
# [23] = biological target: Gal(b1-4)GlcNAc(b1-3)Gal(b1-4)Glc
# Procedure, shortened: as §1
# [24] = biological target: Gal(b1-4)GlcNAc(b1-3)Gal(b1-4)GlcNAc
# Procedure, shortened: as §1
# [25] = biological target: Gal(b1-4)GlcNAc(b1-3)Gal(b1-4)GlcNAc(b1-2)Man(a1-3)[Gal(b1-4)GlcNAc(b1-3)Gal(b1-4)GlcNAc(b1-2)Man(a1-6)]Man(b1-4)GlcNAc(b1-4)GlcNAc
# Procedure, shortened: as §1
# [26] = biological target: Gal(b1-4)GlcNAc(b1-3)Gal(b1-4)GlcNAc(b1-2)Man(a1-3)[Gal(b1-4)GlcNAc(b1-3)Gal(b1-4)GlcNAc(b1-2)Man(a1-6)]Man(b1-4)GlcNAc(b1-4)[Fuc(a1-6)]GlcNAc
# Procedure, shortened: as §1
# [27] = biological target: Gal(b1-4)GlcNAc(b1-3)Gal(b1-4)GlcNAc(b1-2)[Gal(b1-4)GlcNAc(b1-3)Gal(b1-4)GlcNAc(b1-6)]Man(a1-6)[Gal(b1-4)GlcNAc(b1-3)Gal(b1-4)GlcNAc(b1-2)Man(a1-3)]Man(b1-4)GlcNAc(b1-4)GlcNAc
# Procedure, shortened: as §1
binder,measurement,setting,value
"GroEL (Clostridium difficile), Q18CT5 (protein) MAKEIKFSEETRRALEAGVNKLADTVKVTLGPKGRNVILDKKFGSPLITNDGVTIAKEIELEDRFENMGAQLVKEVATKTNDVAGDGTTTATVLAQAIIREGLKNVTAGANPILLRKGIQKAVTVAVEELKNQSRIVETQEAISQVASISAGDEEVGKLIAEAMEIVGKDGVITVEESQTMNTELDAVEGMQFDRGFVSAYMVTDVDKMEAVLNDPYILITDKKISNIQELLPVLEQIVQQGKKLLIIAEDVEGEALSTLVVNKLRGTFDVVAVKAPGFGDRRKEMLQDIAILTGAQVISEELGYDLKEADLSMLGRASSVKVTKESTTIVDGSGDKKAIEDRVTQIKHQVEQTTSDFDREKLMERLAKLAGGVAVVKVGAATEVELKERKLRIEDALNATRAAVEEGIVAGGGTAFVSVIPAIGTLIESLEGEVKLGAQIVKKALEEPLRQIAINAGLEGAVIVQNVVNSEAETGFDALNEKYVNMIEAGIVDPTKVSRSALQNAASIASTFLTTEAAVADLPEKEDAGMPGMGGGMPGMM",glycan array binding signal (z-score),Gal(b1-4)Glc6S,0.425
same,glycan array binding signal (z-score),Gal(b1-4)GlcNAc,0.1
same,glycan array binding signal (z-score),[1],0.336
same,glycan array binding signal (z-score),Gal(b1-4)GlcNAc(b1-2)Man,-0.708
same,glycan array binding signal (z-score),[2],-1.13
same,glycan array binding signal (z-score),[3],0.454
same,glycan array binding signal (z-score),[4],-0.001
same,glycan array binding signal (z-score),[5],-0.706
same,glycan array binding signal (z-score),[6],-0.656
same,glycan array binding signal (z-score),[7],1.68
same,glycan array binding signal (z-score),[8],0.916
same,glycan array binding signal (z-score),[9],0.894
same,glycan array binding signal (z-score),[10],-1.22
same,glycan array binding signal (z-score),[11],0.881
same,glycan array binding signal (z-score),[12],0.734
same,glycan array binding signal (z-score),[13],2.79
same,glycan array binding signal (z-score),[14],-0.833
same,glycan array binding signal (z-score),[15],-0.166
same,glycan array binding signal (z-score),[16],-1.18
same,glycan array binding signal (z-score),[17],0.19
same,glycan array binding signal (z-score),[18],-0.447
same,glycan array binding signal (z-score),[19],-0.543
same,glycan array binding signal (z-score),[20],-1
same,glycan array binding signal (z-score),[21],0.592
same,glycan array binding signal (z-score),[22],-1.05
same,glycan array binding signal (z-score),[23],-0.934
same,glycan array binding signal (z-score),[24],-0.371
same,glycan array binding signal (z-score),[25],-0.644
same,glycan array binding signal (z-score),[26],0.137
same,glycan array binding signal (z-score),[27],0.232
